Literature values in publication PMC4281354, “The opioid receptor pharmacology of GSK1521498 compared to other ligands with differential effects on compulsive reward-related behaviours” (Psychopharmacology, 2014).

Settings: sc pellet containing 75 mg morphine; ref Patrick et al. [1975]; cited from earlier work

**Q.** Which “brain morphine levels over the period of administration” value does the source give for CN1CC[C@]23c4c5ccc(O)c4O[C@H]2[C@@H](O)C=C[C@H]3[C@H]1C5 [Morphine, morphine] here?
**A.** above 200 ng/g tissue

**Q.** What about the “brain morphine levels, peak” value of the same molecule?
**A.** around 600 ng/g tissue
